According to publication PMC8097366, “The Dual Function of KDM5C in Both Gene Transcriptional Activation and Repression Promotes Breast Cancer Cell Growth and Tumorigenesis” (Advanced Science, 2021):
No constants are given. Whether binding was seen depends on the method and setting. In cells and extracts the contact can be indirect. Here binding means that the protein was enriched with, or labelled near, the bait; the list need not be complete. Values belong to the molecule of their own block, whether it stands above or below them.

Chains of the proteins cited; added tags and fusions are not shown.
UniProt P41229: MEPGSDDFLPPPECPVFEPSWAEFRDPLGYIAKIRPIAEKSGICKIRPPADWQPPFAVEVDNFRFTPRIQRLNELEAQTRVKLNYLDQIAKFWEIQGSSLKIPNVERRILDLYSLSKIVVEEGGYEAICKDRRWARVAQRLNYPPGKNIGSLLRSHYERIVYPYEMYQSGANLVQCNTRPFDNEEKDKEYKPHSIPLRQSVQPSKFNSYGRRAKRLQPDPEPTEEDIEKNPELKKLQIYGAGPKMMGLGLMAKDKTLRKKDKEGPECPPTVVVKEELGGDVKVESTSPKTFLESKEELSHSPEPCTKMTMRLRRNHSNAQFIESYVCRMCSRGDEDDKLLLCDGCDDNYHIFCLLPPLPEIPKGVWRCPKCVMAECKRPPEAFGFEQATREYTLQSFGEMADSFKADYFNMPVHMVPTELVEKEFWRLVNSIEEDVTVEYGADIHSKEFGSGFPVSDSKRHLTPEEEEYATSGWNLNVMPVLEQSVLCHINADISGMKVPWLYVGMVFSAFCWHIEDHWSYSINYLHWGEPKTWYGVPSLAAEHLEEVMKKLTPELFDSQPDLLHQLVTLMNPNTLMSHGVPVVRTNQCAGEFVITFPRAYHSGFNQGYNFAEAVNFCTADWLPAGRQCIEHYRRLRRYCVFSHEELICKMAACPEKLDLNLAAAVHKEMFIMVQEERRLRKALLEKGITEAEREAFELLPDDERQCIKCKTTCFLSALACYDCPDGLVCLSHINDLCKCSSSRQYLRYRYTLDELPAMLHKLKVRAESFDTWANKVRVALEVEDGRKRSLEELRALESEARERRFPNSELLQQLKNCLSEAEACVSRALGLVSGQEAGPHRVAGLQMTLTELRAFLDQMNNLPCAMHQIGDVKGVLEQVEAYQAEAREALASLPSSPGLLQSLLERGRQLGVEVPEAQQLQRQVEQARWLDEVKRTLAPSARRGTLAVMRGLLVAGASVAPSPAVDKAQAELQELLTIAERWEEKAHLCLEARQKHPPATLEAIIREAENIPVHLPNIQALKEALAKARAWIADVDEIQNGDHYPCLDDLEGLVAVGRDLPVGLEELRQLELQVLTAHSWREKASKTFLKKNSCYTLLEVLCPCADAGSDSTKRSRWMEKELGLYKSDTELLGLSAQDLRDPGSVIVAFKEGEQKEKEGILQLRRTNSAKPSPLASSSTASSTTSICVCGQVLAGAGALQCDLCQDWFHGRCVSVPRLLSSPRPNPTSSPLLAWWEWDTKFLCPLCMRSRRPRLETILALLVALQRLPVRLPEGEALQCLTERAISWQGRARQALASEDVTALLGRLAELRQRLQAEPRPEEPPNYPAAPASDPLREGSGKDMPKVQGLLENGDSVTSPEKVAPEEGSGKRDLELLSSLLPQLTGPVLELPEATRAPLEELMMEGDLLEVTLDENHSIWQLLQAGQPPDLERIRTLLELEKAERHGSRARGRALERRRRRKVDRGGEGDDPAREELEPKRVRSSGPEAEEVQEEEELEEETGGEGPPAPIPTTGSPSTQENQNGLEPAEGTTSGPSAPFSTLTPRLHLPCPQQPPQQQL
UniProt P50750: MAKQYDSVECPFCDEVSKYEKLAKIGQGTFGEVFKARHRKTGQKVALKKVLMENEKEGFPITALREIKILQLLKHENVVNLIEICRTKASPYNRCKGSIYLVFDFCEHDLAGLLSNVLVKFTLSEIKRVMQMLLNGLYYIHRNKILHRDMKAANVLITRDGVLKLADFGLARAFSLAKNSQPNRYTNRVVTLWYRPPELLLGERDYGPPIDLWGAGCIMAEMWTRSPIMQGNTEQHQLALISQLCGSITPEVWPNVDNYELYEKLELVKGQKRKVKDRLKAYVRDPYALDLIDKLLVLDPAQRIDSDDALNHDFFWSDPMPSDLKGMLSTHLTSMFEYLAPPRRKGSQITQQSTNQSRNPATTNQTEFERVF
UniProt Q9UHD2: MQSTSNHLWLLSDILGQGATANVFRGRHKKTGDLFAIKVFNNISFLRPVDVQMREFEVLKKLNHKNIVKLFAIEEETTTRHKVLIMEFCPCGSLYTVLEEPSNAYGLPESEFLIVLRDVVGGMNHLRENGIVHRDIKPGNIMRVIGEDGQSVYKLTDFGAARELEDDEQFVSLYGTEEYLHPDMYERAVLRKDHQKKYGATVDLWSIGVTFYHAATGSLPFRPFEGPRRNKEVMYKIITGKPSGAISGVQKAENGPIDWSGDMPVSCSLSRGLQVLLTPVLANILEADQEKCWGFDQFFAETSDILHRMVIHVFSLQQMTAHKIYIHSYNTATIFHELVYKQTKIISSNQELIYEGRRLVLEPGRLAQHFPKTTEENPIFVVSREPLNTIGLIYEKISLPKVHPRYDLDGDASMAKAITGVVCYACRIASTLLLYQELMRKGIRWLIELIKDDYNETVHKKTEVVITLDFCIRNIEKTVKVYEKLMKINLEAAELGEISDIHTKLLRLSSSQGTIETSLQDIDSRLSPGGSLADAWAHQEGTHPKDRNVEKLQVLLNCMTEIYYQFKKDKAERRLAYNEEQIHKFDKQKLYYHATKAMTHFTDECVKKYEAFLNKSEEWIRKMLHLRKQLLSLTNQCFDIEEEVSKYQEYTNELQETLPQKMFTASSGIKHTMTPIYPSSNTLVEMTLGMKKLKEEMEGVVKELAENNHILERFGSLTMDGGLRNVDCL
UniProt P03372: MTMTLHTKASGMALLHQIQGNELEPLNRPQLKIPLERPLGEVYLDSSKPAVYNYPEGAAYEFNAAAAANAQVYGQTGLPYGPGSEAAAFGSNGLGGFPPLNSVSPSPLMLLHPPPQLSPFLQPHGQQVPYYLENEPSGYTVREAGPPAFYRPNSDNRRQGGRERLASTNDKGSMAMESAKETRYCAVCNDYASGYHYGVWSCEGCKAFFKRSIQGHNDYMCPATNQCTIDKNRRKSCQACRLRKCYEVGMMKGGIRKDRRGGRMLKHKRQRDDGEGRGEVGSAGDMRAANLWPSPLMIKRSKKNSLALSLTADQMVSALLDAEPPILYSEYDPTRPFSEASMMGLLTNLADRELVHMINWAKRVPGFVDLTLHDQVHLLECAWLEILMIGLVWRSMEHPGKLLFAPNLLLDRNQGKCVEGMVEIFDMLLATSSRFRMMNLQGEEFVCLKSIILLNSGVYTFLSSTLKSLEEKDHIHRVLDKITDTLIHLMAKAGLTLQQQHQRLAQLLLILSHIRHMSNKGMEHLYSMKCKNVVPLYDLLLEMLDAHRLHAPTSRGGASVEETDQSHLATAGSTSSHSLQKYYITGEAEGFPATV

Legend:
[1] = target: Flag- and HA-tagged KDM5C (pCDH-CMV-3×Flag-KDM5C-3×HA-EF1-Puro) (UniProt P41229); assay: affinity purification with mass spectrometry; nuclear extracts of SILAC-labelled MCF7 cells expressing Flag-HA-tagged KDM5C, with or without estrogen (10^-7 M, 1 h), pooled; anti-HA agarose, washes with 0.15 M and 0.1 M KCl, 0.2% NP-40, elution with HA peptides; LC-MS/MS
[2] = target: Flag- and HA-tagged KDM5C (pCDH-CMV-3×Flag-KDM5C-3×HA-EF1-Puro) (UniProt P41229); assay: affinity purification with mass spectrometry; cytosolic fraction of SILAC-labelled MCF7 cells expressing Flag-HA-tagged KDM5C, with or without estrogen; affinity purification and MS
[3] = target: Flag- and HA-tagged KDM5C (pCDH-CMV-3×Flag-KDM5C-3×HA-EF1-Puro) (UniProt P41229); assay: affinity purification with mass spectrometry; affinity purification of Flag-HA-tagged KDM5C from MCF7 cells as in a1 and a2; the sentence does not tell the fraction (nuclear or cytosolic)
[4] = target: Flag- and HA-tagged KDM5C (pCDH-CMV-3×Flag-KDM5C-3×HA-EF1-Puro) (UniProt P41229); assay: affinity purification with mass spectrometry; nuclear extracts of SILAC-labelled MCF7 cells expressing Flag-HA-tagged KDM5C, with or without estrogen (10^-7 M, 1 h), pooled; anti-HA agarose, washes with 0.15 M and 0.1 M KCl, 0.2% NP-40, elution with HA peptides; LC-MS/MS; remark: listed apart in the source

Molecule: CDK9, endogenous in MCF7 (from UniProt P50750 1-372)
- binding [1]: binds

Molecule: TBK1, endogenous in MCF7 (from UniProt Q9UHD2 1-729) (enzyme)
- binding [2]: binds

B2: ZNF687, endogenous in MCF7 (protein, UniProt Q8N1G0 1-1237)
chain: MGDMKTPDFDDLLAAFDIPDIDANEAIHSGPEENEGPGGPGKPEPGVGSESEDTAAASAGDGPGVPAQASDHGLPPPDISVVSVIVKNTVCPEQSEALAGGSAGDGAQAAGVTKEGPVGPHRMQNGFGSPEPSLPGTPHSPAPPSGGTWKEKGMEGKTPLDLFAHFGPEPGDHSDPLPPSAPSPTREGALTPPPFPSSFELAQENGPGMQPPVSSPPLGALKQESCSPHHPQVLAQQGSGSSPKATDIPASASPPPVAGVPFFKQSPGHQSPLASPKVPVCQPLKEEDDDEGPVDKSSPGSPQSPSSGAEAADEDSNDSPASSSSRPLKVRIKTIKTSCGNITRTVTQVPSDPDPPAPLAEGAFLAEASLLKLSPATPTSEGPKVVSVQLGDGTRLKGTVLPVATIQNASTAMLMAASVARKAVVLPGGTATSPKMIAKNVLGLVPQALPKADGRAGLGTGGQKVNGASVVMVQPSKTATGPSTGGGTVISRTQSSLVEAFNKILNSKNLLPAYRPNLSPPAEAGLALPPTGYRCLECGDAFSLEKSLARHYDRRSMRIEVTCNHCARRLVFFNKCSLLLHAREHKDKGLVMQCSHLVMRPVALDQMVGQPDITPLLPVAVPPVSGPLALPALGKGEGAITSSAITTVAAEAPVLPLSTEPPAAPATSAYTCFRCLECKEQCRDKAGMAAHFQQLGPPAPGATSNVCPTCPMMLPNRCSFSAHQRMHKNRPPHVCPECGGNFLQANFQTHLREACLHVSRRVGYRCPSCSVVFGGVNSIKSHIQTSHCEVFHKCPICPMAFKSGPSAHAHLYSQHPSFQTQQAKLIYKCAMCDTVFTHKPLLSSHFDQHLLPQRVSVFKCPSCPLLFAQKRTMLEHLKNTHQSGRLEETAGKGAGGALLTPKTEPEELAVSQGGAAPATEESSSSSEEEEVPSSPEPPRPAKRPRRELGSKGLKGGGGGPGGWTCGLCHSWFPERDEYVAHMKKEHGKSVKKFPCRLCERSFCSAPSLRRHVRVNHEGIKRVYPCRYCTEGKRTFSSRLILEKHVQVRHGLQLGAQSPGRGTTLARGSSARAQGPGRKRRQSSDSCSEEPDSTTPPAKSPRGGPGSGGHGPLRYRSSSSTEQSLMMGLRVEDGAQQCLDCGLCFASPGSLSRHRFISHKKRRGVGKASALGLGDGEEEAPPSRSDPDGGDSPLPASGGPLTCKVCGKSCDSPLNLKTHFRTHGMAFIRARQGAVGDN
- binding [4]: binds

Further lines, results first:

- binding [3]: binds
Molecule: estrogen receptor alpha, endogenous in MCF7 (from UniProt P03372 1-595)

- binding [4]: binds
B1: ZNF592, endogenous in MCF7 (protein, UniProt Q92610 1-1267)
chain: MGDMKTPDFDDLLAAFDIPDPTSLDAKEAIQTPSEENESPLKPPGICMDESVSLSHSGSAPDVPAVSVIVKNTSRQESFEAEKDHITPSLLHNGFRGSDLPPDPHNCGKFDSTFMNGDSARSFPGKLEPPKSEPLPTFNQFSPISSPEPEDPIKDNGFGIKPKHSDSYFPPPLGCGAVGGPVLEALAKFPVPELHMFDHFCKKEPKPEPLPLGSQQEHEQSGQNTVEPHKDPDATRFFGEALEFNSHPSNSIGESKGLARELGTCSSVPPRQRLKPAHSKLSSCVAALVALQAKRVASVTKEDQPGHTKDLSGPTKESSKGSPKMPKSPKSPRSPLEATRKSIKPSDSPRSICSDSSSKGSPSVAASSPPAIPKVRIKTIKTSSGEIKRTVTRILPDPDDPSKSPVGSPLGSAIAEAPSEMPGDEVPVEEHFPEAGTNSGSPQGARKGDESMTKASDSSSPSCSSGPRVPKGAAPGSQTGKKQQSTALQASTLAPANLLPKAVHLANLNLVPHSVAASVTAKSSVQRRSQPQLTQMSVPLVHQVKKAAPLIVEVFNKVLHSSNPVPLYAPNLSPPADSRIHVPASGYCCLECGDAFALEKSLSQHYGRRSVHIEVLCTLCSKTLLFFNKCSLLRHARDHKSKGLVMQCSQLLVKPISADQMFVSAPVNSTAPAAPAPSSSPKHGLTSGSASPPPPALPLYPDPVRLIRYSIKCLECHKQMRDYMVLAAHFQRTTEETEGLTCQVCQMLLPNQCSFCAHQRIHAHKSPYCCPECGVLCRSAYFQTHVKENCLHYARKVGYRCIHCGVVHLTLALLKSHIQERHCQVFHKCAFCPMAFKTASSTADHSATQHPTQPHRPSQLIYKCSCEMVFNKKRHIQQHFYQNVSKTQVGVFKCPECPLLFVQKPELMQHVKSTHGVPRNVDELSSLQSSADTSSSRPGSRVPTEPPATSVAARSSSLPSGRWGRPEAHRRVEARPRLRNTGWTCQECQEWVPDRESYVSHMKKSHGRTLKRYPCRQCEQSFHTPNSLRKHIRNNHDTVKKFYTCGYCTEDSPSFPRPSLLESHISLMHGIRNPDLSQTSKVKPPGGHSPQVNHLKRPVSGVGDAPGTSNGATVSSTKRHKSLFQCAKCSFATDSGLEFQSHIPQHQVDSSTAQCLLCGLCYTSASSLSRHLFIVHKVRDQEEEEEEEAAAAEMAVEVAEPEEGSGEEVPMETRENGLEECAGEPLSADPEARRLLGPAPEDDGGHNDHSQPQASQDQDSHTLSPQV
